{"source": "PubChem BioAssay AID602196, INSERM – 2012", "screen": "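Modifiers of cisplatin sensitivity in A549 cells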", "system": "human A549 lung cancer cells", "knock-down reagent": "siRNA pair against human genes", "timing": "48 h transfection before cisplatin; time from cisplatin to read-out not stated", "challenge": "cisplatin at a dose killing half of control-siRNA cells; exact dose and duration not given", "read-out": "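Cisplatin cell death as a shift from the 50% death seen with control siRNA; siRNAs toxic or growth-blocking alone scored 0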", "scale": "two-siRNA summed score (-2 to +2): higher = both siRNAs protect from cisplatin killing; -2 means both sensitise", "active means": "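siRNAs harmful alone (LDH or WST-1) get 0; others get +1 for less and -1 for more cisplatin killing; genes are active when the two siRNAs give the same sign, summing to ±2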", "meaning of the calls": "active = both siRNAs shift cisplatin killing the same way; inactive = no consistent shift, or siRNA harmful alone", "note": "In all, the deposit lists about 23,000 reagents; below is a random part of them. Over the whole deposit, 455 (2%) got an active call. 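Active includes both protection and sensitisation; some change values fall well beyond the stated -50 to +50 range.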 Entries without a mark were called inactive. Further read-outs or replicates are left out here. The record does not give: the amount of reagent."}
{"gene": "KHDRBS1", "two-siRNA summed score (-2 to +2)": 0}
{"gene": "HKDC1", "two-siRNA summed score (-2 to +2)": -1}
{"gene": "LOC439985", "two-siRNA summed score (-2 to +2)": 0}
{"gene": "DUSP4", "two-siRNA summed score (-2 to +2)": 1}
{"gene": "SLC25A23", "two-siRNA summed score (-2 to +2)": 1}
{"gene": "KMO", "two-siRNA summed score (-2 to +2)": -1}
{"gene": "LOC389660", "two-siRNA summed score (-2 to +2)": 1}
{"gene": "ZKSCAN5", "two-siRNA summed score (-2 to +2)": 1}
{"gene": "ZBTB25", "two-siRNA summed score (-2 to +2)": "-2 (active)"}
{"gene": "PRG3", "two-siRNA summed score (-2 to +2)": 0}
{"gene": "CARD14", "two-siRNA summed score (-2 to +2)": 0}
{"gene": "QSOX1", "two-siRNA summed score (-2 to +2)": -1}
{"gene": "BIN3-IT1", "two-siRNA summed score (-2 to +2)": 0}
{"gene": "MCUR1", "two-siRNA summed score (-2 to +2)": 0}
{"gene": "LOC400962", "two-siRNA summed score (-2 to +2)": 0}
{"gene": "TAF7", "two-siRNA summed score (-2 to +2)": -1}
{"gene": "SLC26A11", "two-siRNA summed score (-2 to +2)": 0}
{"gene": "LOC402059", "two-siRNA summed score (-2 to +2)": 0}
{"gene": "DNAJC17", "two-siRNA summed score (-2 to +2)": 0}
{"gene": "YPEL5", "two-siRNA summed score (-2 to +2)": 0}
{"gene": "LOC441544", "two-siRNA summed score (-2 to +2)": 0}

2 successive reagents already listed:
{"gene": "TAF7", "two-siRNA summed score (-2 to +2)": -1}
{"gene": "SLC26A11", "two-siRNA summed score (-2 to +2)": 0}
